Reference: article PMC11982464, “Structural insight into the catalytic mechanism of the bifunctional enzyme L-fucokinase/GDP-fucose pyrophosphorylase” (The Journal of Biological Chemistry, 2025)
No constants are given. Whether binding was seen depends on the method and setting. Some results given as binding are weak or reduced against the parent protein; the word gives no strength.

Target: FKP-CTD-like molecule formed by autodegradation of FKP-FL and crystallised (FKP-CTD/fucose-1-P crystal) (Bacteroides fragilis 9343) (UniProt Q58T34)
Test: crystal structure; FKP-CTD from FKP autodegradation, F222 crystal, one molecule in the asymmetric unit, soaked with fucose-1-P, 2.46 Å; 50 mM Hepes pH 7.0, 0.8% trypton, 10% PEG3350; both purified

B1: FKP-CTD-like molecule formed by autodegradation of FKP-FL and crystallised (FKP-CTD/fucose-1-P crystal) (domain or fragment, UniProt Q58T34 531-949)
chain: RIHNRMLRARILKLDGKDYRPEEQAAFDLLRDGLLDGISNRKSTPKLDVYSDQIVWGRSPVRIDMAGGWTDTPPYSLYSGGNVVNLAIELNGQPPLQVYVKPCKDFHIVLRSIDMGAMEIVSTFDELQDYKKIGSPFSIPKAALSLAGFAPAFSAVSYASLEEQLKDFGAGIEVTLLAAIPAGSGLGTSSILASTVLGAINDFCGLAWDKNEICQRTLVLEQLLTTGGGWQDQYGGVLQGVKLLQTEAGFAQSPLVRWLPDHLFTHPEYKDCHLLYYTGITRTAKGILAEIVSSMFLNSSLHLNLLSEMKAHALDMNEAIQRGSFVEFGRLVGKTWEQNKALDSGTNPPAVEAIIDLIKDYTLGYKLPGAGGGGYLYMVAKDPQAAVRIRKILTENAPNPRARFVEMTLSDKGFQVSRS
  binding: binds
